Laboratory results reported in paper doi:10.1101/2025.08.25.672089.
Read-outs that look alike come from different tables or passages of the source. Results are given in words; binding and its absence hold for the method and conditions named. Binding seen in cells or lysates may run through a third protein. Some binding calls cover weakened binding; strength is not graded here.

Protein sequences, listed by entry. Tags and fused reporters are not part of them.
UniProt Q9UGL1: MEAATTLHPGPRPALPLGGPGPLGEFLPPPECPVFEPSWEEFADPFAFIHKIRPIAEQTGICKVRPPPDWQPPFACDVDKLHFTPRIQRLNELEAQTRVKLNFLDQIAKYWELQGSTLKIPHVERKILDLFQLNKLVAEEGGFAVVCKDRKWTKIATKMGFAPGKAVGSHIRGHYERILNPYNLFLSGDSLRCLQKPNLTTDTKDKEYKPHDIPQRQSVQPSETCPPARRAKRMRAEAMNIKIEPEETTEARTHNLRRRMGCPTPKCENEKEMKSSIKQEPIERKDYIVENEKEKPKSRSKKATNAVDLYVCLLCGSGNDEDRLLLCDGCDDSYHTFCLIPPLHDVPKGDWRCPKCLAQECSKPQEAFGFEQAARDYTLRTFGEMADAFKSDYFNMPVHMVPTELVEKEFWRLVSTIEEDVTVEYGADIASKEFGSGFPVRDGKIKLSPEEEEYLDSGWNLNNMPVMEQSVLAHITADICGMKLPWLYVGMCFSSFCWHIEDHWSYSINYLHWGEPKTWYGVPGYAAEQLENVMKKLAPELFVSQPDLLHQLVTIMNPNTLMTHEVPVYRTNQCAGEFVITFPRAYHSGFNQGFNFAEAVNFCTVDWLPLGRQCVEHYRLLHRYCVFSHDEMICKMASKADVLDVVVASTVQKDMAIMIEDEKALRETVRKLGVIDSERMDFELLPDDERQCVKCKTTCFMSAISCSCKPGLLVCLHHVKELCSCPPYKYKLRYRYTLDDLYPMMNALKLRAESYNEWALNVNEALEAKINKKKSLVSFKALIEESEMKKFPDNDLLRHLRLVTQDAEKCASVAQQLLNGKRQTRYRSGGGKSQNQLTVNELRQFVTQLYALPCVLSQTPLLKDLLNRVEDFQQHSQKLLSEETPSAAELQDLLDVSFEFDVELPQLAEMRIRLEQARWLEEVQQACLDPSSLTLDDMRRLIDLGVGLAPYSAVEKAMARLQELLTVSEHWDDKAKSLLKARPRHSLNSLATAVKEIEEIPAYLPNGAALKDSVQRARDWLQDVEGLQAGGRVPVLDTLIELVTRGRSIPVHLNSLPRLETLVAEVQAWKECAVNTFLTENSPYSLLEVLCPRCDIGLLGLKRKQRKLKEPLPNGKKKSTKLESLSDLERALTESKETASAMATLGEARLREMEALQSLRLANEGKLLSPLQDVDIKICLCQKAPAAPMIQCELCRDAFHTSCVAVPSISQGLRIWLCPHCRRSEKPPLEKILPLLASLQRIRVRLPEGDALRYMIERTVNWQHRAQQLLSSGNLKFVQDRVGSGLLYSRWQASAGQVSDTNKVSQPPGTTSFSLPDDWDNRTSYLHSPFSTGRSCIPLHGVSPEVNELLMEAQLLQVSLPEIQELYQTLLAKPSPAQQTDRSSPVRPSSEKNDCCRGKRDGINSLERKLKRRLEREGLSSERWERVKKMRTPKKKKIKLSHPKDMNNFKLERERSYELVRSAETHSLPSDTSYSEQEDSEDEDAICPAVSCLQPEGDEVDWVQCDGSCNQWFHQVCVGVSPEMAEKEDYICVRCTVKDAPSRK
UniProt Q01094: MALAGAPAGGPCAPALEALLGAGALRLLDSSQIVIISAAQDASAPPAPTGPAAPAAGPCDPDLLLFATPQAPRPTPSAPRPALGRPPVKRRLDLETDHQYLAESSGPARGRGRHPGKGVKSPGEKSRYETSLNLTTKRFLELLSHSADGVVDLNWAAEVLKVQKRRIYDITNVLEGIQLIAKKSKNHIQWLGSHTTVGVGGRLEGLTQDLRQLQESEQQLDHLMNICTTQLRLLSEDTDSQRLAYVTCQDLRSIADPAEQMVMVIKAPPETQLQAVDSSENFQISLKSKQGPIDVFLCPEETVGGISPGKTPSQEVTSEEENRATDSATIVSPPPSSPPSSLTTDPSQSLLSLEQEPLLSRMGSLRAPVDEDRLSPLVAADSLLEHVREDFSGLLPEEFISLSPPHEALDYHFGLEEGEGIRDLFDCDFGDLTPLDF
UniProt Q09472: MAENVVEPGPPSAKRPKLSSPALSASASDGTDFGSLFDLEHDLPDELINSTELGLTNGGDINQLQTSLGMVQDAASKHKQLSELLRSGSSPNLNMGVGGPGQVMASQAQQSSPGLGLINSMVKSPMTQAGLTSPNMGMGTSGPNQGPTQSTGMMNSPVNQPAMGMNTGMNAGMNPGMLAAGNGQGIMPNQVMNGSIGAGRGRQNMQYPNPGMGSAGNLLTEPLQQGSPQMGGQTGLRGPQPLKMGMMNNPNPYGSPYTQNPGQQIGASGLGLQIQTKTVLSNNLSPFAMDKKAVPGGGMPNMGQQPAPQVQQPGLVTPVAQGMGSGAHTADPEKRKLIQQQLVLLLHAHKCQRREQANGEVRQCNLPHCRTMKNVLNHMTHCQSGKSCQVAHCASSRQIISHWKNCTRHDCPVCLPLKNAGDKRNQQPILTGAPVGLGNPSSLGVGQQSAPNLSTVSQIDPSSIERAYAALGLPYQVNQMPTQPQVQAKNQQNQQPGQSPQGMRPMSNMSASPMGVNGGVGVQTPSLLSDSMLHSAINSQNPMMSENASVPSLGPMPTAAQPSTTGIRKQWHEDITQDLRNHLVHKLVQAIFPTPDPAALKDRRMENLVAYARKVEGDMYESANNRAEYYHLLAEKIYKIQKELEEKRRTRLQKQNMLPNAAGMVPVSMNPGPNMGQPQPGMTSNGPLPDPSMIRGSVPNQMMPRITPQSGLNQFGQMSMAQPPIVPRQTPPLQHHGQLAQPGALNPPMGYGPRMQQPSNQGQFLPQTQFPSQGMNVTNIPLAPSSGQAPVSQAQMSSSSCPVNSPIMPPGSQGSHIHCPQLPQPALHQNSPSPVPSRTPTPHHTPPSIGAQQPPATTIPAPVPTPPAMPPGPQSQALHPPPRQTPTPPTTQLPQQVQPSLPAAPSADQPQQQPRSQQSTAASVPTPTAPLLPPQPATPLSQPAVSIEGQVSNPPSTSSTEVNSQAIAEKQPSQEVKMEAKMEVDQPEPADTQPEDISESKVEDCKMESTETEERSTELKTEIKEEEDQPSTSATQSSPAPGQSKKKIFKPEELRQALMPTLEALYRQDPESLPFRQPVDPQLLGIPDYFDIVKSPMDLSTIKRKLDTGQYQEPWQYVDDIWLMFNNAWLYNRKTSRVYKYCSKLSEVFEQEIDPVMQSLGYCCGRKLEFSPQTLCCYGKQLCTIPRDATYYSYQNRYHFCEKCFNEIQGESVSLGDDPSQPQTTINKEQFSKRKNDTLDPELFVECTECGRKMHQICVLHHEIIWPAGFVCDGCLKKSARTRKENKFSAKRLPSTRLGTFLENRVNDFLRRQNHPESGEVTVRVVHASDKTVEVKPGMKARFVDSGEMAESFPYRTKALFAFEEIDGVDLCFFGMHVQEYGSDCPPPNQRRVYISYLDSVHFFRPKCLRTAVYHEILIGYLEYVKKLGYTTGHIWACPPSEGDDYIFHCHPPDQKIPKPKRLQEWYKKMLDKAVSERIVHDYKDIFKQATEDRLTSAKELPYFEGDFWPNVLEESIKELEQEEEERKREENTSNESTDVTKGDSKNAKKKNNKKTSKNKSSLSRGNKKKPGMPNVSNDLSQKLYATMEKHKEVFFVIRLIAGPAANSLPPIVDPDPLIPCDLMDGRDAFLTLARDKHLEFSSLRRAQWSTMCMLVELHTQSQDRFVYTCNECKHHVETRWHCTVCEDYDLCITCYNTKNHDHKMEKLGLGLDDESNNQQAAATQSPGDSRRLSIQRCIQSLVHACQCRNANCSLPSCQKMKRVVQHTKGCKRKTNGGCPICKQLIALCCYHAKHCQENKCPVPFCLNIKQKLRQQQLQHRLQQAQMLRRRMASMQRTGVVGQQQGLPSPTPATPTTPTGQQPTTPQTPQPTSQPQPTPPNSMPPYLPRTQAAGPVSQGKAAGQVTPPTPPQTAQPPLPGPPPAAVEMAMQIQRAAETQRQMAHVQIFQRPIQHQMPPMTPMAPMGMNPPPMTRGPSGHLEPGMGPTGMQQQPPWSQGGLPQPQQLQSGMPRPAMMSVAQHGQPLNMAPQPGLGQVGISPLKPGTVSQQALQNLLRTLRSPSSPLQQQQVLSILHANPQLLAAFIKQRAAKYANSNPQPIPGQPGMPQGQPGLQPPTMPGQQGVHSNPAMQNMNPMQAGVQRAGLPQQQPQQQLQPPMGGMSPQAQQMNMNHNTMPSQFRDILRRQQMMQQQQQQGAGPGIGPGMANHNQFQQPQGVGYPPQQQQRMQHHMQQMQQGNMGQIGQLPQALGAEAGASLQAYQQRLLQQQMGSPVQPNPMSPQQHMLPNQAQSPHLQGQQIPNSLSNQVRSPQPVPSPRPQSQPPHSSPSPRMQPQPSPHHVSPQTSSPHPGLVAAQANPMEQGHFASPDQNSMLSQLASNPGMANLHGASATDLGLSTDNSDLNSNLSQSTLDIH

How the values were obtained:
Assay in all cases: co-IP
[1] = target: KDM5B (human (endogenous in MCF7, K562 and A549)) (UniProt Q9UGL1)
[2] = target: KDM5B (human (endogenous in MCF7, K562 and A549)) (UniProt Q9UGL1); remark: listed apart in the source
[3] = target: E2F1 (human (endogenous in MCF7)) (UniProt Q01094)

Tumor suppressor p53 (from UniProt P04637 1-393)
binding [1]: binds
binding [2]: binds

p300 (from UniProt Q09472 1-2414) (enzyme)
binding [1]: binds
binding [3]: binds
binding [2]: binds
